Assay results reported in article PMC6372715.
These are yes or no findings as the source states them, for the method shown. In cells and extracts the contact can be indirect. Some entries that bind do so weakly or less than the wild type.

The chains behind the UniProt entries cited, without tags or fusion partners.
UniProt Q9UQC2: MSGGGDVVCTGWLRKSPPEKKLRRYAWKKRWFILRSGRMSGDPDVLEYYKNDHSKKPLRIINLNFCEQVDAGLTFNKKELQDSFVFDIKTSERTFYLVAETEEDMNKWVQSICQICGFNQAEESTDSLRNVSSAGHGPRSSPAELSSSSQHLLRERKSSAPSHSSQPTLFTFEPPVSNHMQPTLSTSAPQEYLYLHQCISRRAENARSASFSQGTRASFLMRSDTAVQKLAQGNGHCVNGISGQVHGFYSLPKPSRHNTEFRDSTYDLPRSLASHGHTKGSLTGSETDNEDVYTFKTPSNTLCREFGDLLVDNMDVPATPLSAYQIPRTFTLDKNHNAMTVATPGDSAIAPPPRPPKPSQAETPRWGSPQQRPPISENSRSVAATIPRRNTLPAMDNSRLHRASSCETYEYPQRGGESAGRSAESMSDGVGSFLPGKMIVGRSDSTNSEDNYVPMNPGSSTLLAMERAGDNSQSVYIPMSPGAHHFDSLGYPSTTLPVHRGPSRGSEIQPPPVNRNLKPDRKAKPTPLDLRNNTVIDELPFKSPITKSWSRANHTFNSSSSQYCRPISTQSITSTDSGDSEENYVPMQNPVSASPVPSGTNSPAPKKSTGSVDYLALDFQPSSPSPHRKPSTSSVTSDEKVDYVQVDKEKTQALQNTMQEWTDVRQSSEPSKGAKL

Key:
[1] = biological target: T1, Grb2-associated binder 2 (Gab2) (human (endogenous in SKOV3 and OAW28)), Q9UQC2; experiment: co-IP; immunoprecipitation with and without PIK3R1 depletion (Supplementary Fig. 5d/5e); cell line and precipitating antibody not told in the text shown; details: remark: other sources report otherwise
[2] = biological target: T1, Grb2-associated binder 2 (Gab2) (human …); experiment: proximity ligation; Duolink PLA in fixed, permeabilised SKOV3 cells transfected with PIK3R1 siRNA or controls; pairs of primary antibodies; spots per nucleus counted; details: remark: other sources report otherwise
[3] = biological target: Grb2-associated binder 2 (Gab2) (human (endogenous in SKOV3 and OAW28)) (UniProt Q9UQC2); experiment: as above
[4] = biological target: Grb2-associated binder 2 (Gab2) (human (endogenous in SKOV3 and OAW28)) (UniProt Q9UQC2); experiment: co-IP; immunoprecipitation with and without PIK3R1 depletion (Supplementary Fig. 5d/5e); cell line and precipitating antibody not told in the text shown

binding [1] | binding [2] | binding [3] | binding [4] | Binder
binds | binds |  |  | 14-3-3β, P31946 1-246 (protein) MTMDKSELVQKAKLAEQAERYDDMAAAMKAVTEQGHELSNEERNLLSVAYKNVVGARRSSWRVISSIEQKTERNEKKQQMGKEYREKIEAELQDICNDVLELLDKYLIPNATQPESKVFYLKMKGDYFRYLSEVASGDNKQTTVSNSQQAYQEAFEISKKEMQPTHPIRLGLALNFSVFYYEILNSPEKACSLAKTAFDEAIAELDTLNEESYKDSTLIMQLLRDNLTLWTSENQGDEGDAGEGEN
 |  | binds | binds | 14-3-3γ (protein, UniProt P61981 1-247) MVDREQLVQKARLAEQAERYDDMAAAMKNVTELNEPLSNEERNLLSVAYKNVVGARRSSWRVISSIEQKTSADGNEKKIEMVRAYREKIEKELEAVCQDVLSLLDNYLIKNCSETQYESKVFYLKMKGDYYRYLAEVATGEKRATVVESSEKAYSEAHEISKEHMQPTHPIRLGLALNYSVFYYEIQNAPEQACHLAKTAFDDAIAELDTLNEDSYKDSTLIMQLLRDNLTLWTSDQQDDDGGEGNN
